Experimental data as given in the supplement of paper PMC12067093, “Discovery and optimisation of a covalent ligand for TRIM25 and its application to targeted protein ubiquitination” (Chemical Science, 2025).
The other results are listed elsewhere or left out.

Compound: CC1Cc2ccccc2N1C(=O)C1CCCN(C1)C(=O)CCl (mixture of isomers) [TRIM25 ligand 11 (diastereomer mixture)]
Experiment: probe-labelled cysteine peptide fold change vs DMSO (competition) (log2 fold change); higher = less target engagement (more negative = stronger competition)
Conditions: THP-1, incubation time: 4 h
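Also: competitive chemoproteomic profiling in live THP-1 cells with an iodoacetamide desthiobiotin (IA-DTB) probe, comparing probe-labelled peptide intensities in compound-treated cells against DMSO-treated controls.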

Row | Target | probe-labelled cysteine peptide fold change (10 µM) | probe-labelled cysteine peptide fold change (50 µM)
1 | SMG1_Q96Q15_2738_LKQEAVTVPVCEDQLK (UniProt Q96Q15) | 0.072 | -0.0832
2 | SMARCAD1_Q9H4L7_407_ILHFLQDASIGELTLIPQCSQK (UniProt Q9H4L7) | 0.0673 | 0.107
3 | SNAPC3_Q92966_92_DLDCSLEAAAELR (UniProt Q92966) | -0.125 | -0.000743
4 | SLK_Q9H2G2_86_VIDTKSEEELEDYMVEIDILASCDHPNIVK (UniProt Q9H2G2) | -0.198 | -0.0733
5 | SMG7_Q92540_537_NLSNNCDTGEKPVVTFK (UniProt Q92540) | -0.036 | -0.226
6 | SMU1_Q2TAY7_448_EGGDFVCCALSPR (UniProt Q2TAY7) | 0.0825 | 0.134
7 | SNRNP200_O75643_576_RLATYGITVAELTGDHQLCK (UniProt O75643) | -0.0593 | 0.102
8 | SMYD3_Q9H7B4_263_DQYCFECDCFR (UniProt Q9H7B4) | -0.0567 | 0.116
9 | SMARCA2_P51531_91_GIVEDIHCGSMK (UniProt P51531) | -0.022 | -0.253
10 | SMC2_O95347_800_KLDCAK (UniProt O95347) | -0.0584 | 0.0695
11 | SMAP2_Q8WU79_80_SVNLDQWTQEQIQCMQEMGNGK (UniProt Q8WU79) | 0.0063 | 0.00761
12 | SNRNP200_O75643_428_RCQLPDGSFR (UniProt O75643) | 0.0603 | -0.0144
13 | SMG7_Q92540_537_NLSNNCDTGEK (UniProt Q92540) | 0.347 | 0.0605
14 | SLC27A2_O14975_414_YDVEKDEPVRDENGYCVR (UniProt O14975) | -0.0156 | -0.0311
15 | SLFN13_Q68D06_487_EQDAEGQDYCTR (UniProt Q68D06) | 0.0571 | 0.0597
16 | SLC4A1AP_Q9BWU0_430_EAMIQCSLEACR (UniProt Q9BWU0) | -0.0801 | 0.0527
17 | SLMAP_Q14BN4_120_KVTHGCIVSTIK (UniProt Q14BN4) | -0.0304 | 0.0755
18 | SLC43A1_O75387_384_DCVDAPTQGTVLGDAR (UniProt O75387) | 0.17 | 0.0451
19 | SMG9_Q9H0W8_380_EDFCPR (UniProt Q9H0W8) | -0.111 | -0.454
20 | SLC30A1_Q9Y6M5_447_QCCGTLPQAPSGK (UniProt Q9Y6M5) | -0.168 | -0.232

Row | Target | probe-labelled cysteine peptide fold change (10 µM) | probe-labelled cysteine peptide fold change (50 µM)
21 | SLC39A14_Q15043_290_LQNGDLDHMIPQHCSSELDGK (UniProt Q15043) | 0.116 | -0.277
22 | SLC2A9_Q9NRM0_36_ALLECDHLR (UniProt Q9NRM0) | -0.0472 | -0.18
23 | SLMAP_Q14BN4_641_CQQCEDQQR (UniProt Q14BN4) | 0.151 | 0.124
24 | SMYD3_Q9H7B4_263_QLRDQYCFECDCFR (UniProt Q9H7B4) | -0.0377 | -0.0451
25 | SLC44A1_Q8WWI5_98_YVFFLDPCNLDLINR (UniProt Q8WWI5) | -0.0258 | 0.155
26 | SMURF2_Q9HAU4_47_VVVDGSGQCHSTDTVK (UniProt Q9HAU4) | 0.116 | -0.253
27 | SNRNP200_O75643_576_LATYGITVAELTGDHQLCK (UniProt O75643) | 0.114 | 0.107
28 | SMU1_Q2TAY7_312_GVTCLSFSK (UniProt Q2TAY7) | 0.0362 | 0.219
29 | SLITRK4_Q8IW52_580_NEILCPK (UniProt Q8IW52) | 0.195 | -0.00736
30 | SLK_Q9H2G2_1212_MTGESECLNPSTQSR (UniProt Q9H2G2) | -0.113 | -0.264
31 | SMS_P52788_206_DVLILGGGDGGILCEIVK (UniProt P52788) | -0.115 | -0.0163
32 | SNRNP200_O75643_1127_MWQSMCPLR (UniProt O75643) | 0.097 | -0.0364
33 | SMC4_Q9NTJ3_158_DIQSCTVEVHFQK (UniProt Q9NTJ3) | 0.131 | 0.23
34 | SLFN11_Q7Z7L1_51_AACALLNSGGGVIR (UniProt Q7Z7L1) | 0.0734 | 0.0456
35 | SNRNP200_O75643_331_MMILYCTLLASAQSEAEK (UniProt O75643) | 0.218 | 0.217
36 | SND1_Q7KZF4_826_DIQNTQCLLNVEHLSAGCPHVTLQFADSKGDVGLGLVK (UniProt Q7KZF4) | -0.352 | -0.529
37 | SMCHD1_A6NHR9_985_FSGAPNLPVYVVDCSSSGTSILTGSAIQVQNIKK (UniProt A6NHR9) | -0.176 | -0.146
38 | SND1_Q7KZF4_96_EVCFTIENK (UniProt Q7KZF4) | 0.00729 | 0.0683
39 | SLU7_O95391_455_YSYCTGEAGK (UniProt O95391) | 0.0886 | 0.134
